Among the data in PubChem BioAssay (NCATS) are max response values, retold here.

Several values for one entry are separate records, joined by “and”; a condition that tells them apart may be missing. Identical values can stand only once. The list shows a part of the results. Further columns of the screen follow, without active or inactive calls. Most of these compounds were active or inconclusive in the main read-out, so they are no random draw.

The nature of the assay: qHTS assay for small molecule agonists of retinoid X receptor alpha signaling (AID 588544). Conditions: HEK293T RXRa-UAS-bla, beta-lactamase reporter, 18 h; 530 nm emission. An excerpt:
NIH Chemical Genomics Center [NCGC] U.S. Environmental Protection Agency [EPA] National Institutes of Environmental Health Sciences [NIEHS] National Toxicology Program [NTP] NCGC Assay Overview The Retinoid X receptor (RXR), a nuclear hormone receptor is expressed in liver, spleen, placenta, epidermis, central nervous system. These receptors are able to form homo and heterodimers with other nuclear receptors and due to this heterodimerizing ability, RXR functions as master regulators producing diverse physiological effects. Three subtypes of RXR exist; alpha, beta and gamma. Retinoid X receptor alpha (RXR-alpha) has potential roles in metabolic signaling pathways, skin alopecia, dermal cysts, cardiac development, insulin sensitization etc. Therefore screening environmental chemicals on RXR-alpha signaling can be used for the studies focused on such therapeutic applications.
NCGC Assay Protocol Summary Using a beta-lactamase reporter-gene under control of Retinoid X receptor--alpha (RXR-alpha) response element, a cell-based assay [GeneBLAzer (RXR-alpha -UAS-bla assay developed by Invitrogen] was used to measure RXR-alpha ligands signaling. GeneBLAzer RXR-alpha -UAS-bla HEK293T cells were used with assay medium containing 2% charcoal-stripped FBS. The assay was performed in clear bottom black Greiner 1536-well plates. 9-cis-retinoic acid was used in the screen as the positive control. Library compounds were measured for their ability to stimulate the reporter gene activity. Compounds were screened in a titration series in 1536-well format. The fluorescence intensity (405 nm excitation, 460/530 nm emission) was measured using an EnVision plate reader. Data was normalized relative to 9-cis-retinoic acid control (500 nM, 100%), and DMSO only wells (basal, 0%). Concentration-response titration points for each compound were fitted to the Hill equation yielding concentrations of half-maximal stimulation (EC50) and maximal response (efficacy) values. qHTS protocol for RXR-alpha beta-lactamase assay in agonist mode [Step] [Parameter] [Value] [Description] 1. Reagent; 6 uL; 2500 cells/well 2. Incubation; 37 C for 4 hrs 3. Compounds; 23 nL; 0.59 nM to 92 uM 4. Controls (9-cis-retinoic acid); 23 nL, - One column with dose response, start 38 uM, 1:3 dilutions in duplicates - Final concentrations of 500 nM and 50 nM in two columns 5. Incubation; 37 C for 18 hrs 6. Detection reagent; 1 uL of CCF4-dye 7. Incubation; RT for 2 hrs 8. Detection; Fluorescence; Envision plate reader
Background: Quantitative high-throughput screening tests each substance at several concentrations.
In the case of `CCSC(C)CC1CC(=O)C(/C(CC)=N/OC/C=C/Cl)=C(O)C1` (stereo not given), the max response came out at 15.6%.
The value for `Cc1ccc(O)c(C)c1` was -2.83%.
As for `O=C1C=C2C(=CCOC2O)O1` (stereo not given), the max response was -33.7%.
Consider `Nc1c(Cl)c(Cl)nc(C(=O)O)c1Cl`, for which the max response was 14.3% and 33.1%.
Regarding `O=S(=O)(c1ccc(Cl)cc1)c1cc(Cl)c(Cl)cc1Cl`, the max response was 22.9%.
On to `Oc1ccc(Cl)cc1Sc1cc(Cl)ccc1O`, for which the max response was found to be 20.9%.
As for `CCCCCCCCCCCC[N+](C)(C)CCOc1ccccc1`, the max response was 14.3%.
Turning to `CCOP(=O)(OCC)O/C(=C/Cl)c1ccc(Cl)cc1Cl`, the max response stood at 15.3%.
For the compound `CCCCCCCCCCCCC1=C(OC(C)=O)C(=O)c2ccccc2C1=O`, the max response is -29.6%.
For `CC1(c2ccc(Oc3ccccc3)cc2)OC(=O)N(Nc2ccccc2)C1=O` (stereo not given), the max response is 31.7%.
Consider `COP(=S)(OC)SCn1nnc2ccccc2c1=O`, for which the max response was 16.3% and 22.2%.
On to `c1ccc(Nc2ccc3ccccc3c2)cc1`, for which the max response is 6.5% and 2.74%.
As to `C#CCOS(=O)OC1CCCCC1Oc1ccc(C(C)(C)C)cc1` (stereo not given), the max response was found to be 34.3%.
As for `COCC(C)N(C(=O)CCl)c1c(C)csc1C` (stereo not given), the max response came out at 37.2%.
Consider `CCCC1COC(Cn2cncn2)(c2ccc(Cl)cc2Cl)O1` (stereo not given), for which the max response turned out to be 37%.
Turning to `COc1nn(CSP(=S)(OC)OC)c(=O)s1`, the max response worked out at 19.9%.
The value for `CC(C)N(C(=O)COc1nnc(C(F)(F)F)s1)c1ccc(F)cc1` was -2.82%.
Take `CCCCCCCCCCCCCCCC[N+](C)(C)C`: the max response was -68.7% and -4.32%.
In the case of `O=C(Nc1ccc(Cl)cc1)Nc1ccc(Cl)c(Cl)c1`, the max response stood at 6.57%.
Take `CC[n+]1c(-c2ccccc2)c2cc(N)ccc2c2ccc(N)cc21`: the max response was -2.74%.
The value for `CCOP(=O)(OCC)Oc1cc(C)nc(C(C)C)n1` was 2.1%.
On to `C=C(C)[C@H]1Cc2c(ccc3c2O[C@@H]2COc4cc(OC)c(OC)cc4[C@@H]2C3=O)O1`, for which the max response was found to be 31.9%.
Take `O=C1C2CC=CCC2C(=O)N1SC(Cl)(Cl)Cl` (stereo not given): the max response is 21.2% and 38.4% and 34%.
On to `CCOP(=S)(OCC)O/N=C(\C#N)c1ccccc1`, for which the max response was -43.8%.
With `Brc1cc(Br)c(Oc2cc(Br)c(Br)cc2Br)cc1Br`, the max response was 67%.
On to `O=C(O)C1C2CCC(O2)C1C(=O)O` (stereo not given), for which the max response is -27.6%.
For `CC1COC(Cn2cncn2)(c2ccc(Oc3ccc(Cl)cc3)cc2Cl)O1` (stereo not given), the max response is -22.2%.
As to `COP(=O)(OC)SCn1c(=O)oc2cc(Cl)cnc21`, the max response is 48.8%.
For the compound `Cc1cc(O)c2c(c1)C(=O)c1cc(O)cc(O)c1C2=O`, the max response turned out to be 40.6%.
As to `[Cl][Sn]([c]1ccccc1)([c]1ccccc1)[c]1ccccc1`, the max response is -34.7%.
For `O=P(O)(O)CN(CP(=O)(O)O)CP(=O)(O)O`, the max response was -17.9%.
As for `CN(C)c1ccc(C(=O)c2ccc(N(C)C)cc2)cc1`, the max response stood at 34.5%.
As to `Clc1ccc([C@@]2(Cn3cncn3)C[C@@H](Br)CO2)c(Cl)c1`, the max response came to 0.585%.
For `Clc1ccc(-c2cc(Cl)c(Cl)cc2Cl)cc1Cl`, the max response is -11.1%.
As for `Brc1ccc(Oc2ccc(Br)cc2Br)c(Br)c1`, the max response is -4.91%.
As for `ClC1=C(Cl)C2(Cl)C3C4CC(C5OC45)C3C1(Cl)C2(Cl)Cl` (stereo not given), the max response was found to be 13%.
With `O=C(O)COc1nc(Cl)c(Cl)cc1Cl`, the max response is -1.68%.
As for `CC(C)N(C(=O)CCl)c1ccccc1`, the max response was found to be 60.9%.
On to `CC(=O)N1CCN(c2ccc(OC[C@H]3CO[C@](Cn4ccnc4)(c4ccc(Cl)cc4Cl)O3)cc2)CC1`, for which the max response was -15.7%.
For the compound `O=c1[nH]c2ccccc2n1C1CCN(CCCC(c2ccc(F)cc2)c2ccc(F)cc2)CC1`, the max response was -21.5%.
